Experiment [1] addresses EGFR (endogenous, ARPE-19 cells) (human (endogenous in ARPE-19)) (UniProt P00533). Briefly: proximity ligation; Duolink In Situ PLA on fixed ARPE-19 cells with mouse anti-GGA2 and rabbit anti-EGFR or rabbit anti-CIMPR; cells transfected with siCtrl, siGGA2, siEGFR, siGGA1 or siGGA3.
For experiment [2], the target named is CIMPR (endogenous, ARPE-19 cells) (human (endogenous in ARPE-19)) (UniProt P11717). The experiment is described as above.

Sequences of proteins named here, by UniProt entry; tags and fusion partners are left off. Residues count along the entry.
UniProt P11717, residues 41-2491: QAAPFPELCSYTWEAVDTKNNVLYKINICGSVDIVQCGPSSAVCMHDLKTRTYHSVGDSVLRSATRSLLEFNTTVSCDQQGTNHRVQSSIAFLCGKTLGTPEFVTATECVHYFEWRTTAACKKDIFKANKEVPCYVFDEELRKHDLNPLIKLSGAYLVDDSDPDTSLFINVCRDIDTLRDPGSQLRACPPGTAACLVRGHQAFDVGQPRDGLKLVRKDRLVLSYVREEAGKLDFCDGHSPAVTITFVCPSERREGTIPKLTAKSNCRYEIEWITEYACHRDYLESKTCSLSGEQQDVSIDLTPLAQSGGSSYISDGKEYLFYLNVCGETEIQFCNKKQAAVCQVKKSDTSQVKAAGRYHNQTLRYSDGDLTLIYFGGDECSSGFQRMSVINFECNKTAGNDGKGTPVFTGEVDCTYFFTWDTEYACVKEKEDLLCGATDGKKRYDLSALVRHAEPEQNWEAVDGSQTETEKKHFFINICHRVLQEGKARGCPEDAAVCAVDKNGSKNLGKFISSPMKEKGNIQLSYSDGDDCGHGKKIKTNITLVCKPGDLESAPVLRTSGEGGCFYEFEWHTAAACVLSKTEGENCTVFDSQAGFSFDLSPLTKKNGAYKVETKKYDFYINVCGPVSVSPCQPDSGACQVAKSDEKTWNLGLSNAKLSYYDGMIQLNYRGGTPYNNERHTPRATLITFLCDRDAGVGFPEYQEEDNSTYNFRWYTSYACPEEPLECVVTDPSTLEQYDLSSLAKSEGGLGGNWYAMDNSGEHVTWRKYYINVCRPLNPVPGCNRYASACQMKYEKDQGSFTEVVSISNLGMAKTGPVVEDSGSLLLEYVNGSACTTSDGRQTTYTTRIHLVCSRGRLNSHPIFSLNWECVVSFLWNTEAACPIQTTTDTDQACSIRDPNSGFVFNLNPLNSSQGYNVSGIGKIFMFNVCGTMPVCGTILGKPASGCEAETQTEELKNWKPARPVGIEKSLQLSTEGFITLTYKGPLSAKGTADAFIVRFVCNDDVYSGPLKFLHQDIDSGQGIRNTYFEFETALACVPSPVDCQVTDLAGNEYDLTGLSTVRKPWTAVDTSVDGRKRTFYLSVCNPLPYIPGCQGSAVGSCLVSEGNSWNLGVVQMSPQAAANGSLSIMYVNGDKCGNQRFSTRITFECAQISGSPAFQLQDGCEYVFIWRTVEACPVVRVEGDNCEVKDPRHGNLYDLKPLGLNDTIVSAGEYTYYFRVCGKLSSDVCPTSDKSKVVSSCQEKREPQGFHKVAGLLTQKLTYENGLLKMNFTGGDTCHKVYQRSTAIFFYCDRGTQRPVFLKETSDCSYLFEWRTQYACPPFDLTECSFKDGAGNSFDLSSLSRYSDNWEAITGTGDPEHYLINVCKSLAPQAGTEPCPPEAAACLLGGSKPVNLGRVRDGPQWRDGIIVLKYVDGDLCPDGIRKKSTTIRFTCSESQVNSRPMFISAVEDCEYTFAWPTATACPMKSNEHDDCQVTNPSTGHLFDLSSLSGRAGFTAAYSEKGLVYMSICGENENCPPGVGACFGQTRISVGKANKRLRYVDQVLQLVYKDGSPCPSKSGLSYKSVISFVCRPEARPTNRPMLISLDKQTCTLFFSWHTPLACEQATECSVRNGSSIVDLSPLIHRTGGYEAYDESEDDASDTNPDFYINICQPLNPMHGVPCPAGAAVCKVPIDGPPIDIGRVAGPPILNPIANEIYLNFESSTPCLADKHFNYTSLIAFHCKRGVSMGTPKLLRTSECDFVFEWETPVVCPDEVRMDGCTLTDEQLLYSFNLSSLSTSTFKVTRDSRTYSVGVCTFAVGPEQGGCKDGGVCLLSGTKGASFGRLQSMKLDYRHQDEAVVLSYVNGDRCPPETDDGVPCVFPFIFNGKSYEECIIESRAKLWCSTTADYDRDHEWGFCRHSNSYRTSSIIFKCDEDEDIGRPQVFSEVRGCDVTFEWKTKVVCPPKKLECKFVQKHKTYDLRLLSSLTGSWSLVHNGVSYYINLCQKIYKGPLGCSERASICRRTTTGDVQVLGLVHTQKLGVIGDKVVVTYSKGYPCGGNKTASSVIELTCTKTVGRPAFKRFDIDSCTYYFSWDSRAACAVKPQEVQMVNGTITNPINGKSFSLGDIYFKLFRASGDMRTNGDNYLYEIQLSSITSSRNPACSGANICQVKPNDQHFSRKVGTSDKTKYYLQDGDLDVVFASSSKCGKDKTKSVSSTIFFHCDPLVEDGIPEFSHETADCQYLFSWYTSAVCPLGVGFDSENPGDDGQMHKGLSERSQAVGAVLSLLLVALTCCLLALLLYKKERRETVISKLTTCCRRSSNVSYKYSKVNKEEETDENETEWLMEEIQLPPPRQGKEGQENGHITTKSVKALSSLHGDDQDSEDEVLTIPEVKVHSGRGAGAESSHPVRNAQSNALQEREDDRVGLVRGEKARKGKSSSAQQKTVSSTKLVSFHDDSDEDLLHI
UniProt Q9UJY4: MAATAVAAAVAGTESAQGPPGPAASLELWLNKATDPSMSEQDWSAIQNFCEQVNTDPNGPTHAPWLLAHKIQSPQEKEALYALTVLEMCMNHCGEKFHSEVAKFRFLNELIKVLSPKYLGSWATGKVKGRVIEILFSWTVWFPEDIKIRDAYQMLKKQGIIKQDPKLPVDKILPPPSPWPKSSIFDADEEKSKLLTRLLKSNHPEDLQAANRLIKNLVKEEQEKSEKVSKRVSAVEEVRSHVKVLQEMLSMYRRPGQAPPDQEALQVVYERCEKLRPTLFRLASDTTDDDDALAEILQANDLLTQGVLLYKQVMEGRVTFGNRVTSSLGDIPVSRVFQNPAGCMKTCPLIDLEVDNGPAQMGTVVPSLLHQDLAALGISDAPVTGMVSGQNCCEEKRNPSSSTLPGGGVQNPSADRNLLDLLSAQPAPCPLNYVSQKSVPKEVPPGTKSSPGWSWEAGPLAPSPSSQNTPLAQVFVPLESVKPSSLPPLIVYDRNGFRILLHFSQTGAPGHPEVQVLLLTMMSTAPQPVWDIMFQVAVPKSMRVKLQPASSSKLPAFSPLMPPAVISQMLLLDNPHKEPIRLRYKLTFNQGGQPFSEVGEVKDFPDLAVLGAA

The values that follow come from paper PMC5778047.

No constants are given. Whether binding was seen depends on the method and setting. In cells and extracts the contact can be indirect. Some entries that bind do so weakly or less than the wild type.

On to “GGA2 (endogenous, ARPE-19 cells) (from UniProt Q9UJY4 1-613)”, for which the binding entry in experiment [1] and in experiment [2] was “binds” in each case.
